# Some of the results follow.
# Target: T1, OsSMF1 (Oryza sativa, UniProt Q6ZLB0 1-436)
# T1 sequence: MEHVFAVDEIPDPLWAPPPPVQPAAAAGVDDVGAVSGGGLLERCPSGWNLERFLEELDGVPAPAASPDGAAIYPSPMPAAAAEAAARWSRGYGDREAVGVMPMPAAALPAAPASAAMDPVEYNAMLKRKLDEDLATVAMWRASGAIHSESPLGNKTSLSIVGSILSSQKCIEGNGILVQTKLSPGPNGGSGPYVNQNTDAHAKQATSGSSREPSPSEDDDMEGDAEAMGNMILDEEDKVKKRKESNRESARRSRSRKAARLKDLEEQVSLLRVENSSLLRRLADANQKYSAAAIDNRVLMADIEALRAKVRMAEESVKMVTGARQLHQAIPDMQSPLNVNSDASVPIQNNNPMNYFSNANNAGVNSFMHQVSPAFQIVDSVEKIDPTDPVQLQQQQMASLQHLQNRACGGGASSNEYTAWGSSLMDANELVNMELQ
# Test: protein-binding microarray (RPBM); PBS, 2% BSA, 51.3 ng/ul salmon testes DNA, 50 uM zinc acetate, 200 nM TF, 25 C, 1 h; high values mean tight binding
# Settings: protein: recombinant; tags: N-terminal polyhistidine and DsRed monomer fusion (pET32a); chain copies: 2; label: CyDye5-dUTP incorporated in the synthesized complementary strand; 3' TTTTT single-stranded linker to array surface; dsDNA, one strand shown
# Method in brief: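 Using Ni–NTA, transcription factors fused N-terminally to polyhistidine and DsRed were purified after expression in E. coli BL21-CodonPlus. These were incubated at 200 nM with a blocked, double-stranded custom Agilent array for 1 h at 25 °C in a buffer containing 50 µM zinc acetate, and the array was washed. The binding signal is per-feature fluorescence intensity (arbitrary units) on an Axon 4000B scanner.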
row,Sequence,binding signal
1,TGTTGTTTTCCAGAGCATGTACACACCATGACCACGATGCCGGAGTCACCTAGTGCAG,3670 fluorescence intensity (a.u.)
2,TCCGCCGCCTCGGTCGGCTCACGCGTCCATGTCCATCCCGCGGAGTCACCTAGTGCAG,3600 fluorescence intensity (a.u.)
3,CCAGCGCCGCCAAACCCAACAAGCCATCCGCCGCTGCCAACGGAGTCACCTAGTGCAG,13300 fluorescence intensity (a.u.)
4,ATAAAGAATATGTAGAATTGGAACTATGCTAAGAGAAGAGCGGAGTCACCTAGTGCAG,3280 fluorescence intensity (a.u.)
5,CGCAACAACGGCGACACCGCCGCCAAGGCCCACGCGAGCACGGAGTCACCTAGTGCAG,3230 fluorescence intensity (a.u.)
6,GCGCTAGTGCCTTGCAAAATCGACACGTGGCCCTTCCCCTCGGAGTCACCTAGTGCAG,15800 fluorescence intensity (a.u.)
7,CGTCCTTCTCAGTCAGCGCCCATGACCTGACCTGACCCGACGGAGTCACCTAGTGCAG,3940 fluorescence intensity (a.u.)
8,GGGTGGAGGAGGGGACTTCGGGAGGGCGGTGGCGAGGGCGCGGAGTCACCTAGTGCAG,5360 fluorescence intensity (a.u.)
9,CATATATGTGTGTCTAGATTCATTAACATCTATATGATTGCGGAGTCACCTAGTGCAG,4680 fluorescence intensity (a.u.)
10,GCTTTTAAATCGTTAAGAACACGTATATAAAAGTTTTATTCGGAGTCACCTAGTGCAG,3700 fluorescence intensity (a.u.)
11,TCAGGCCTTAAGTGCCTTTGTAATAATGTAAATATTATCGCGGAGTCACCTAGTGCAG,3320 fluorescence intensity (a.u.)
12,GTGGTGGACTGGTGGTGGCGGACTTGACGGCTCCCCACTGCGGAGTCACCTAGTGCAG,3690 fluorescence intensity (a.u.)
13,CTAGCCACTGAAGCATGGGTCATGATACAGCAGTTAATATCGGAGTCACCTAGTGCAG,3440 fluorescence intensity (a.u.)
14,CGGTAAATAGTTAAAAGCTCTGACGCGGAAAATTTATCTACGGAGTCACCTAGTGCAG,3480 fluorescence intensity (a.u.)
15,TTTAAGCCTAATTGCGTCATGATTTGACAATGTGATACTACGGAGTCACCTAGTGCAG,5800 fluorescence intensity (a.u.)
16,CCGTCGACTCTGTGCCACGTCCTGTTGCTCGTCGGATTCCCGGAGTCACCTAGTGCAG,14000 fluorescence intensity (a.u.)
17,CGAGGGGCTGATCAGCTTCTGCCGGCAGCCGACGTTCGTGCGGAGTCACCTAGTGCAG,3150 fluorescence intensity (a.u.)
18,GGTGCGACGGCTTGGTTGATTGGGTGACGGGTGGGATTTGCGGAGTCACCTAGTGCAG,3540 fluorescence intensity (a.u.)
19,TCGGAGGTAGGCCACATCACGGTTTCAACTGTGTATAAGCCGGAGTCACCTAGTGCAG,7760 fluorescence intensity (a.u.)
20,GCGCCCCGCTGCCGAGAGCCGCGCGCGCCGCCGTCGTCATCGGAGTCACCTAGTGCAG,4120 fluorescence intensity (a.u.)
21,GACTCCAGCTGGCCTCCATTATTGGCTCTTAGTTAGCCAACGGAGTCACCTAGTGCAG,3450 fluorescence intensity (a.u.)

row,Sequence,binding signal
1,CCGCCGCGCGTGGCTCCCCGGCCACGTCGTCGTCGTCGTCCGGAGTCACCTAGTGCAG,10900 fluorescence intensity (a.u.)
2,ATCCCAGTTTGATACTGGAGTATGCTGATGCTAATGTAAACGGAGTCACCTAGTGCAG,27700 fluorescence intensity (a.u.)
3,ATCGTGGAGGTTTTATATCAGCTAGTCACTTGGTTTACCGCGGAGTCACCTAGTGCAG,3200 fluorescence intensity (a.u.)
4,TCCACCACCGCCTGCCTCCATCCACCTCCACTGCAACCTCCGGAGTCACCTAGTGCAG,3670 fluorescence intensity (a.u.)
5,TGTGGCTGGCGTGTTTCCTGGTTTACGGACCGGTCATAATCGGAGTCACCTAGTGCAG,11900 fluorescence intensity (a.u.)
6,CTGCTCCACGCATTCACCAACGCTCCCTGCGATGTTTTAGCGGAGTCACCTAGTGCAG,4260 fluorescence intensity (a.u.)
7,TGTACCACGTCAATGATAAGAACAGCACACTGTAGAAAGTCGGAGTCACCTAGTGCAG,4670 fluorescence intensity (a.u.)
8,CGACAGAGGCAGGCAGGCAGGCCAGTGGCTATAAAGACTCCGGAGTCACCTAGTGCAG,38400 fluorescence intensity (a.u.)
9,GGTTGAGTGACGCGCTATTTCTGGTATTGCGTATGAAGGGCGGAGTCACCTAGTGCAG,3520 fluorescence intensity (a.u.)
10,CAGTATTGCGGGCGAGCGCGCAGCTGAAATACTGAATCCTCGGAGTCACCTAGTGCAG,32600 fluorescence intensity (a.u.)
11,AACTAGATTCGCTATTGCTATCCACATCCTAGATGGTCATCGGAGTCACCTAGTGCAG,3630 fluorescence intensity (a.u.)
12,TATATATATATATATATATGGGTGGTGTTCTTTTCTCTGGCGGAGTCACCTAGTGCAG,3790 fluorescence intensity (a.u.)
13,AGTTAAAACCAAATGAATATCTGCCACGCCATTGACCAAACGGAGTCACCTAGTGCAG,4760 fluorescence intensity (a.u.)
14,GAAGAGCATTACGCTATGCATGACGTATTGCATGATTTGGCGGAGTCACCTAGTGCAG,9150 fluorescence intensity (a.u.)
15,GGGACGGGAGGGTGGCGATGGCCGCGGAGACGGCTTCAGGCGGAGTCACCTAGTGCAG,3550 fluorescence intensity (a.u.)
16,TCTGAAGAAAGGAGGAGGACAGGGTGGTGGTCAACAGGGCCGGAGTCACCTAGTGCAG,29700 fluorescence intensity (a.u.)
17,CCAGCATCGCCGGCAGATCCACGTCGAGCATCGCGGCAGGCGGAGTCACCTAGTGCAG,5190 fluorescence intensity (a.u.)
18,CGCGCGAGAACCGAAACCGCGCGACGCGCGGCCACGTCCCCGGAGTCACCTAGTGCAG,5700 fluorescence intensity (a.u.)
19,GTCCCAGCCGCATGTCACTGCCACTCTGCACTCTTCTCTCCGGAGTCACCTAGTGCAG,3840 fluorescence intensity (a.u.)
20,TACACTTGTGATGTCATGCCAGTAATAATGCTGTAATGGTCGGAGTCACCTAGTGCAG,4170 fluorescence intensity (a.u.)
21,CCCCTGCTGATGTGTTGTGTCATCGTGTGCTTACGAGAAACGGAGTCACCTAGTGCAG,8010 fluorescence intensity (a.u.)

# Single values from the results shown.
# TATATATATATATATATATGGGTGGTGTTCTTTTCTCTGGCGGAGTCACCTAGTGCAG – binding signal: 3790 fluorescence intensity (a.u.)
# CGACAGAGGCAGGCAGGCAGGCCAGTGGCTATAAAGACTCCGGAGTCACCTAGTGCAG – binding signal: 38400 fluorescence intensity (a.u.)

# Source: publication PMC7819943, “Rice protein-binding microarrays: a tool to detect cis-acting elements near promoter regions in rice”
